Data as given in patent US9517222B2, “Method for the treatment of senile dementia of the Alzheimer's type” (Phenomenome Discoveries Inc., priority 2007, dated 2016).
A unit is not stated for every read-out.

Experiments:
[1] = Serum ethanolamine phospholipid ratios to PtdEt 16:0/18:0 (M01) in human cohorts
[2] = Serum ethanolamine phospholipid levels in human cohorts (dementia severity, post-mortem pathology, age) by flow-injection MS/MS
[3] = serum, females, post mortem SDAT
[4] = serum, females, post mortem control

For `CCCCCCCC/C=C\CCCCCCCC(=O)OC(COC(=O)CCCCCCCCCCCCCCC)COP(=O)(O)OCCN` (centres unmarked) [Metabolite M02, PtdEt 16:0/18:1], the “Ratio of ethanolamine phospholipid ratios to M01 between cohorts” value (shortened to “Ratio … to M01 between cohorts”) ([1]; AD, All to CN, Male) was 0.803, the “Ratio … to M01 between cohorts” value ([1]; ADAS 5-19 to CN, Male) was 0.842 and the “Ratio … to M01 between cohorts” value ([1]; ADAS 20-39 to CN, Male) was 0.807. For the same molecule, the “Ratio … to M01 between cohorts” value ([1]; ADAS 40-70 to CN, Male) was 0.680, the “Average serum ethanolamine phospholipid ratio to M01, Mean” value ([1]; Cognitive Normal, Male, serum) was 0.564 and the “Average serum ethanolamine phospholipid ratio to M01, Mean” value ([1]; SDAT, ADAS 5-19, Male, serum) was 0.475. The “Average serum ethanolamine phospholipid ratio to M01, Mean” value ([1]; SDAT, ADAS 20-39, Male, serum) was 0.455, the “Average serum ethanolamine phospholipid ratio to M01, Mean” value ([1]; SDAT, ADAS 40-70, Male, serum) was 0.383 and the “Average serum ethanolamine phospholipid ratio to M01, Mean” value ([1]; SDAT_all, Male, serum) was 0.453. The “Ethanolamine Phospholipid Ratio to M01, Mean, Age Ctl, 30-39, Female” value ([1]; human serum, females aged 30-39) was 0.474, the “Ethanolamine Phospholipid Ratio to M01, Mean, Age Ctl, 40-49, Female” value ([1]; human serum, females aged 40-49) was 0.597 and the “Ethanolamine Phospholipid Ratio to M01, Mean, Age Ctl, 50-59, Female” value ([1]; human serum, females aged 50-59) was 0.551. The “Ratio of Ethanolamine Phospholipid Ratio to M01, 50-59 vs. 40-49, Female” value ([1]; human serum, females aged 50-59 vs. females aged 40-49) was 0.923, the “Ethanolamine Phospholipid Ratio to M01, Mean, Age Ctl, 60-69, Female” value ([1]; human serum, females aged 60-69) was 0.460 and the “Ratio of Ethanolamine Phospholipid Ratio to M01, 60-69 vs. 40-49, Female” value ([1]; human serum, females aged 60-69 vs. females aged 40-49) was 0.771. For the same molecule, the “Ethanolamine Phospholipid Ratio to M01, Mean, Age Ctl, 70+_Female” value ([1]; human serum, females aged 70+) was 0.455, the “Ratio of Ethanolamine Phospholipid Ratio to M01, 70+ vs. 40-49, Female” value ([1]; human serum, females aged 70+ vs. females aged 40-49) was 0.763 and the “Ratio of Ethanolamine Phospholipid Ratio to M01, 50-59 vs. 40-49, Male” value ([1]; human serum, males aged 50-59 vs. males aged 40-49) was 1.082. The “Ratio of Ethanolamine Phospholipid Ratio to M01, 60-69 vs. 40-49, Male” value ([1]; human serum, males aged 60-69 vs. males aged 40-49) was 0.903, the “Ratio of Ethanolamine Phospholipid Ratio to M01, 70+ vs. 40-49, Male” value ([1]; human serum, males aged 70+ vs. males aged 40-49) was 0.879 and the “Ratio of ethanolamine phospholipid ratio to M01, ADAS 5-19 to CN, Female” value ([1]; serum, females, ADAS 5-19 vs cognitive normal) was 0.872. The “Ratio of ethanolamine phospholipid ratio to M01, ADAS 20-39 to 5-19, Female” value ([1]; serum, females, ADAS 20-39 vs ADAS 5-19) was 1.101, the “Ratio of ethanolamine phospholipid ratio to M01, ADAS 20-39 to CN, Female” value ([1]; serum, females, ADAS 20-39 vs cognitive normal) was 0.960 and the “Ratio of ethanolamine phospholipid ratio to M01, ADAS 40-70 to 5-19, Female” value ([1]; serum, females, ADAS 40-70 vs ADAS 5-19) was 0.949. For the same molecule, the “Ratio of ethanolamine phospholipid ratio to M01, ADAS 40-70 to 20-39, Female” value ([1]; serum, females, ADAS 40-70 vs ADAS 20-39) was 0.862, the “Ratio of ethanolamine phospholipid ratio to M01, ADAS 40-70 to CN, Female” value ([1]; serum, females, ADAS 40-70 vs cognitive normal) was 0.828 and the “Ethanolamine phospholipid ratio to M01, Mean, SDAT, ADAS 5-19, Female” value ([1]; serum, females, SDAT ADAS 5-19) was 0.454. For the same molecule, the “Ethanolamine phospholipid ratio to M01, Mean, SDAT, ADAS 20-39, Female” value ([1]; serum, females, SDAT ADAS 20-39) was 0.499, the “Ethanolamine phospholipid ratio to M01, Mean, SDAT, ADAS 40-70, Female” value ([1]; serum, females, SDAT ADAS 40-70) was 0.431 and the “Ratio of ethanolamine phospholipid ratio to M01, AD, All to CN, Female” value ([1]; serum, females, all AD vs cognitive normal) was 0.891. The “Ethanolamine phospholipid ratio to M01, Mean, SDAT_all Female” value ([1]; serum, females, all SDAT) was 0.463, the “Ratio of ethanolamine phospholipid ratio to M01, Autopsy AD vs. Control, Female” value ([1]; serum, females, autopsy AD vs post mortem control) was 1.140 and the “Ethanolamine phospholipid ratio to M01, Mean, Cognitive Normal, Female” value ([1]; serum, females, cognitive normal) was 0.520. The “Ethanolamine phospholipid ratio to M01, Mean, Post Mortem SDAT Female” value [1, 3] was 0.367, the “Ethanolamine phospholipid ratio to M01, Mean, Post Mortem Ctl, Female” value [1, 4] was 0.322 and the “Ratio of ethanolamine phospholipid ratio to M01, ADAS 20-39 to 5-19, Male” value ([1]; serum, males, SDAT ADAS 20-39 vs ADAS 5-19) was 0.958. For the same molecule, the “Ratio of ethanolamine phospholipid ratio to M01, ADAS 40-70 to 5-19, Male” value ([1]; serum, males, SDAT ADAS 40-70 vs ADAS 5-19) was 0.807, the “Ratio of ethanolamine phospholipid ratio to M01, ADAS 40-70 to 20-39, Male” value ([1]; serum, males, SDAT ADAS 40-70 vs ADAS 20-39) was 0.843 and the “Ethanolamine phospholipid ratio to M01, Mean, Age Ctl, 30-39, Male” value ([1]; serum, males, age control 30-39) was 0.476. The “Ethanolamine phospholipid ratio to M01, Mean, Age Ctl, 40-49, Male” value ([1]; serum, males, age control 40-49) was 0.477, the “Ethanolamine phospholipid ratio to M01, Mean, Age Ctl, 50-59, Male” value ([1]; serum, males, age control 50-59) was 0.517 and the “Ethanolamine phospholipid ratio to M01, Mean, Age Ctl, 60-69, Male” value ([1]; serum, males, age control 60-69) was 0.431. The “Ethanolamine phospholipid ratio to M01, Mean, Age Ctl, 70+_Male” value ([1]; serum, males, age control 70+) was 0.420, the “Ethanolamine phospholipid ratio to M01, Mean, Post Mortem SDAT Male” value ([1]; serum, males, post mortem SDAT) was 0.290 and the “Ratio of ethanolamine phospholipid ratio to M01, SDAT vs Control (post mortem, males)” value ([1]; serum, males, post mortem SDAT vs post mortem control) was 0.791. For the same molecule, the “Ethanolamine phospholipid ratio to M01, Mean, Post Mortem Ctl, Male” value ([1]; serum, males, post mortem control) was 0.367, the “Ratio of serum levels” value ([2]; AD, All to CN, Male) was 0.845 and the “Ratio of serum levels” value ([2]; ADAS 5-19 to CN, Male) was 0.898. For the same molecule, the “Ratio of serum levels” value ([2]; ADAS 20-39 to 5-19, Male) was 0.908, the “Ratio of serum levels” value ([2]; ADAS 20-39 to CN, Male) was 0.816 and the “Ratio of serum levels” value ([2]; ADAS 40-70 to 5-19, Male) was 0.768. The “Ratio of serum levels” value ([2]; ADAS 40-70 to 20-39, Male) was 0.846, the “Ratio of serum levels” value ([2]; ADAS 40-70 to CN, Male) was 0.690 and the “Serum level, Mean” value ([2]; Cognitive Normal, Female) was 0.062. The “Average serum level, Mean” value ([2]; Cognitive Normal, Male) was 0.066, the “Serum level, Mean” value ([2]; Post Mortem Ctl, Male) was 0.046 and the “Serum level, Mean” value ([2]; Post Mortem SDAT Male) was 0.026. The “Ratio of serum levels” value ([2]; Post mortem SDAT vs Control, Male) was 0.568, the “Serum level, Mean” value ([2]; SDAT, ADAS 5-19, Female) was 0.050 and the “Average serum level, Mean” value ([2]; SDAT, ADAS 5-19, Male) was 0.060. The “Serum level, Mean” value ([2]; SDAT, ADAS 20-39, Female) was 0.057, the “Average serum level, Mean” value ([2]; SDAT, ADAS 20-39, Male) was 0.054 and the “Serum level, Mean” value ([2]; SDAT, ADAS 40-70, Female) was 0.052. For the same molecule, the “Average serum level, Mean” value ([2]; SDAT, ADAS 40-70, Male) was 0.046, the “Serum level, Mean” value ([2]; SDAT_all, Female) was 0.053 and the “Average serum level, Mean” value ([2]; SDAT_all, Male) was 0.056. The “Ratio, ADAS 5-19 to CN, Female” value ([2]; serum level ratio, females, ADAS 5-19 vs CN) was 0.806, the “Ratio, ADAS 20-39 to 5-19, Female” value ([2]; serum level ratio, females, ADAS 20-39 vs ADAS 5-19) was 1.132 and the “Ratio, ADAS 20-39 to CN, Female” value ([2]; serum level ratio, females, ADAS 20-39 vs CN) was 0.912. The “Ratio, ADAS 40-70 to 5-19, Female” value ([2]; serum level ratio, females, ADAS 40-70 vs ADAS 5-19) was 1.034, the “Ratio, ADAS 40-70 to 20-39, Female” value ([2]; serum level ratio, females, ADAS 40-70 vs ADAS 20-39) was 0.914 and the “Ratio, ADAS 40-70 to CN, Female” value ([2]; serum level ratio, females, ADAS 40-70 vs CN) was 0.833. The “Ratio, 50-59 vs. 40-49, Female” value ([2]; serum level ratio, females, age 50-59 vs 40-49) was 0.838, the “Ratio, 60-69 vs. 40-49, Female” value ([2]; serum level ratio, females, age 60-69 vs 40-49) was 0.835 and the “Ratio, 70+ vs. 40-49, Female” value ([2]; serum level ratio, females, age 70+ vs 40-49) was 0.812. For the same molecule, the “Ratio, AD, All to CN, Female” value ([2]; serum level ratio, females, all AD vs cognitively normal) was 0.856, the “Ratio, Autopsy AD vs. Control, Female” value ([2]; serum level ratio, females, autopsy AD vs control) was 0.773 and the “Ratio, 50-59 vs. 40-49, Male” value ([2]; serum level ratio, males, age 50-59 vs 40-49) was 0.998. For the same molecule, the “Ratio, 60-69 vs. 40-49, Male” value ([2]; serum level ratio, males, age 60-69 vs 40-49) was 1.024, the “Ratio, 70+ vs. 40-49, Male” value ([2]; serum level ratio, males, age 70+ vs 40-49) was 0.965 and the “Mean serum level, Age Ctl, 30-39, Female” value ([2]; serum, females, age 30-39) was 0.047. For the same molecule, the “Mean serum level, Age Ctl, 40-49, Female” value ([2]; serum, females, age 40-49) was 0.069, the “Mean serum level, Age Ctl, 50-59, Female” value ([2]; serum, females, age 50-59) was 0.058 and the “Mean serum level, Age Ctl, 60-69, Female” value ([2]; serum, females, age 60-69) was 0.058. For the same molecule, the “Mean serum level, Age Ctl, 70+, Female” value ([2]; serum, females, age 70+) was 0.056, the “Mean serum level, Post Mortem SDAT, Female” value [2, 3] was 0.048 and the “Mean serum level, Post Mortem Ctl, Female” value [2, 4] was 0.062. The “Mean serum level, Age Ctl, 30-39, Male” value ([2]; serum, males, age 30-39) was 0.056, the “Mean serum level, Age Ctl, 40-49, Male” value ([2]; serum, males, age 40-49) was 0.058 and the “Mean serum level, Age Ctl, 50-59, Male” value ([2]; serum, males, age 50-59) was 0.058. For the same molecule, the “Mean serum level, Age Ctl, 60-69, Male” value ([2]; serum, males, age 60-69) was 0.059 and the “Mean serum level, Age Ctl, 70+, Male” value ([2]; serum, males, age 70+) was 0.056.
